Experimental data reported in PubChem BioAssay AID493014 (National Center for Advancing Translational Sciences (NCATS), 2011).
This is one part of the list. Shown are side measurements of this screen, not its main read-out; they come without a call. Compounds called inactive in the main read-out are mostly missing here. Potencies come from curve fits of mixed quality, noted in brackets.

Assay: qHTS Assay to Find Inhibitors of Chronic Active B-Cell Receptor Signaling
Details: ABC-DLBCL IkBa-CBG/CBR reporter, luminescence ratio (green luciferase fused to IkBa over red control in TMD8 lymphoma cells), 4 h
In short: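 Cell line TMD8 (human ABC DLBCL), stably expressing tet-inducible CBG68-IkBa fusion and CBR; IMDM/0.5% FBS; cpd up to 46 uM; dox induction, 4 h, 37C/5% CO2; dual luminescence; green/red ratio; MG132 control.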

[1] = measured here: CBR red luminescence, cell number
[2] = measured here: IkBa-CBG green luminescence

SMILES | AC50 [1] | AC50 [2]
CCCCSC1=C(C#N)C(c2ccccc2C)C(C(=O)OCC)C(=O)N1 (stereo unspecified) | 35.5 µM [falling, single point] | –
Nc1ncnc(Sc2ncccn2)c1[N+](=O)[O-] | 5.01 µM [falling, partial curve] | –
Cc1cc(C(=O)OCC(=O)NCc2ccco2)c(C)n1-c1ccccc1 | 6.31 µM [rising, full curve] | –
CC1(c2ccc3c(c2)OCCO3)NC(=O)N(CC(=O)Nc2ccccc2SCC#N)C1=O (stereo unspecified) | 29.1 µM [rising, single point] | –
O=C(Cc1ccc(S(=O)(=O)N2CCCCC2)cc1)NCc1ccc(Cl)cc1 | 29.1 µM [rising, single point] | –
CSC1=NSC2=NC(=O)/C(=C\c3cccs3)C(=N)N12 | 16.4 µM [falling, single point] | 29.1 µM [rising, partial curve, poor fit]
COc1ccc(S(=O)(=O)N(C)c2ccc(C(=O)NCCC(C)C)cc2)cc1 | 29.1 µM [rising, single point] | –
CCCCc1nnc(NC(=O)CCS(=O)(=O)c2ccc(Cl)cc2)s1 | 14.6 µM [falling, partial curve, poor fit] | –
O=[N+]([O-])c1ccc(N/N=C/c2ccc[nH]2)cc1 | 0.103 µM [rising, full curve, poor fit] | –
CSc1ccc(/C=C(\C#N)C(=O)NC2CCCCC2C)cc1 (stereo unspecified) | 23.1 µM [falling, single point] | –
CCc1nccn1C(=O)c1cnn2c(C(F)F)cc(-c3ccccc3)nc12 | 20 µM [falling, partial curve, poor fit] | –
O=C(/C=C/c1cccc(Cl)c1)Nc1ccncc1 | 0.316 µM [rising, partial curve, poor fit] | –
O=C(Nc1ccc2c(c1)OCCO2)C(=O)NC1CC1 | 35.5 µM [falling, single point] | –
CCC(C)c1ccccc1OCCCNC1CCCC1 (stereo unspecified) | 35.5 µM [falling, single point] | –
CCn1c(C)cc(/C=C2/SC(=O)N(C(C)C(=O)OC)C2=O)c1C (stereo unspecified) | 8.91 µM [rising, partial curve, poor fit] | –
COC(=O)Cc1cc(=O)n2[nH]c(SC)nc2n1 | 7.31 µM [falling, single point] | –
CCCOc1ccc(-c2nnc(-c3cccs3)o2)cc1 | 0.164 µM [rising, full curve, poor fit] | –
Cc1cc(C)c(NC(=O)CSc2nccn2C)c(C)c1 | 6.51 µM [rising, partial curve, poor fit] | –
CCOc1ccccc1CN(CCc1ccc2c(c1)OCO2)Cc1ccccn1 | 3.16 µM [falling, single point] | –
O=C(O)c1ccc(N=Nc2c(-c3ccccc3)[nH]oc2=O)cc1 | 0.0355 µM [falling, full curve, poor fit] | –
Cc1ccc(C(=O)NC2(C(Cl)Cl)N=C(c3ccccc3)N=C2N)cc1 (stereo unspecified) | 0.794 µM [rising, partial curve] | –
O=C(CS(=O)(=O)Nc1ccc(F)cc1Cl)Nc1ccc(F)cc1Cl | 22.4 µM [rising, single point] | –

Whole records, looked up by structure:
O=C(CS(=O)(=O)Nc1ccc(F)cc1Cl)Nc1ccc(F)cc1Cl is listed as AC50 [1]: 22.4 µM [rising, single point]
O=C(Nc1ccc2c(c1)OCCO2)C(=O)NC1CC1 is listed as AC50 [1]: 35.5 µM [falling, single point]

Going on with the list:

SMILES | AC50 [1] | AC50 [2]
CC(C)CN1CCNC(=O)C1CC(=O)NCc1cnn(-c2cccc(F)c2)c1 (stereo unspecified) | 5.01 µM [rising, full curve, poor fit] | –
CC1(c2ccc(OC(F)F)cc2)NC(=O)N(CC(=O)Nc2ccccc2)C1=O (stereo unspecified) | 35.5 µM [falling, single point] | –
O=C1Nc2ccccc2/C1=C/c1ccc([N+](=O)[O-])cc1 | 3.16 µM [rising, single point] | 11.2 µM [falling, partial curve, poor fit]
CCOC(=O)C1=c2s/c(=C\c3ccncc3)c(=O)n2C(N)=C(C(=O)OC)C1c1ccncc1 (stereo unspecified) | 2.51 µM [rising, partial curve] | –
CCN(CC)S(=O)(=O)c1cccc(-c2nnc(SCc3nnc(-c4ccccc4)o3)n2C)c1 | 1.03 µM [rising, full curve, poor fit] | –
CC(C)N(C(=O)[C@H]1C[C@H](CC(=O)NCc2ccco2)C(=O)N2CCc3c([nH]c4cc(-c5ccco5)ccc34)[C@]12C)C(C)C | 23.1 µM [falling, single point] | –
O=S(=O)(Nc1ncccn1)c1ccc(NC(=S)Nc2cccc(Cl)c2)cc1 | 15.8 µM [rising, single point] | –
O=C(CCl)NCCCN(C(=O)C(Cl)Cl)c1ccc([N+](=O)[O-])cc1 | 7.08 µM [falling, partial curve, poor fit] | –
CCCn1c(=O)c2[nH]cnc2n(-c2ccc(Cl)cc2)c1=O | 20 µM [falling, partial curve, poor fit] | –
Cc1c(O)ccc(C(=O)CN2C(=O)c3ccccc3C2=O)c1O | 5.17 µM [falling, full curve, poor fit] | –
Cc1sc2nc(CSCC(=O)N3CC(C)OC(C)C3)[nH]c(=O)c2c1C (stereo unspecified) | 25.9 µM [rising, single point] | –
COc1ccc(CNCC(O)(c2ccc(F)cc2)c2ccc(F)cc2)cc1 | 11.2 µM [falling, single point] | –
CCCCn1c(O)c(C=NCCCN(C)C)c(=O)[nH]c1=O | 11.2 µM [rising, partial curve, poor fit] | –
CCOC(=O)c1[nH]c2ccc(Br)cc2c1NC(=O)CNC | 29.1 µM [falling, single point] | –
CC(c1ccccc1)N1CCN(C(=O)CCl)CC1 (stereo unspecified) | 7.94 µM [falling, partial curve, poor fit] | –
CCOC(=O)N1CCN(C(=O)CSCC(=O)Nc2nc(-c3ccc4c(c3)OCO4)cs2)CC1 | 0.562 µM [falling, full curve] | –
CCOc1ccccc1NC(=O)CN(c1ccc(C)cc1)S(=O)(=O)c1c(C)noc1C | 5.8 µM [falling, single point] | –
Cc1c(CCO)c(=O)[nH]n1C(=O)c1ccc(F)cc1 | 3.98 µM [falling, full curve] | –
Cc1nc2cc(C(=O)OCC(=O)Nc3ccc(C#N)cc3)ccc2n1-c1ccccc1 | 18.4 µM [rising, partial curve, poor fit] | –
CCCCc1ccc(-n2nnnc2SCC(=O)Nc2cc(OC)c([N+](=O)[O-])cc2C)cc1 | 6.51 µM [rising, single point] | –
CCOc1ccc(CCNS(=O)(=O)c2c(C)nc3scc(C)n3c2=O)cc1OCC | 2.51 µM [rising, full curve, poor fit] | –
O=C1C2C3C=CC(C3)C2C(=O)N1/N=C/c1cn(Cc2ccccc2)c2ccccc12 (stereo unspecified) | 2.51 µM [rising, full curve] | –

SMILES | AC50 [1] | AC50 [2]
COC(=O)c1ccccc1N=Nc1c(N)n[nH]c1N | 35.5 µM [falling, single point] | –
CC(C)CCNC(=O)/C=C/c1ccc(Br)cc1 | 29.1 µM [falling, single point] | –
CCCCC(=O)Nc1ccc(C(=O)NNC(=O)c2ccco2)cc1 | 35.5 µM [falling, single point] | –
Cc1ccc(CSc2nnc(-c3cccc(S(=O)(=O)N4CCOCC4)c3)n2CC(C)C)cc1 | 0.82 µM [falling, full curve, poor fit] | –
COCCOC(=O)C1=C(C)OC(N)=C(C#N)C1c1ccc2c(c1)OCO2 (stereo unspecified) | 16.4 µM [falling, single point] | –
CCOC(=O)N1CCN(S(=O)(=O)c2ccc(C(=O)Nc3sc4c(c3C(N)=O)CC(C)(C)NC4(C)C)cc2)CC1 | 35.5 µM [falling, single point] | –
CCSc1cc(N2CCOCC2)nc(-c2ccccc2)n1 | 2.59 µM [rising, partial curve, poor fit] | –
CC(C)(C)c1ccc(Cn2c(=O)cnc3ccccc32)cc1 | – | 17.8 µM [falling, single point]
Cn1nnnc1SCCNCc1ccncc1 | 3.66 µM [rising, single point] | –
CC(=O)N1CCN(c2nc3ccc(Br)cc3s2)CC1 | 0.447 µM [rising, partial curve, poor fit] | –
C=CCOC(=O)C1=C(C)NC(SCC(=O)N(CC)CC)=C(C#N)C1c1ccco1 (stereo unspecified) | 29.1 µM [falling, single point] | –
CCS(=O)(=O)N1Cc2ccccc2CC1C(=O)Nc1ccc(F)cc1 (stereo unspecified) | 7.94 µM [falling, partial curve, poor fit] | –
Cn1c(/C(C#N)=C(\O)c2ccc([N+](=O)[O-])cc2)nc2ccccc21 | 0.112 µM [rising, full curve, poor fit] | –
O=C(c1ccccc1)c1c(O)nc(-c2ccccc2)n(-c2ccccc2)c1=O | 10.3 µM [falling, partial curve] | –
c1ccc2nc(N3CCOCC3)cnc2c1 | 0.103 µM [rising, full curve, poor fit] | –
COc1cc(NC(=O)C(=O)NCCN(C)C)c(OC)cc1Cl | 15.8 µM [rising, single point] | –
CC(C)OCc1ccc(C(=O)N2CCN(CC(=O)N3CCCC3)CC2)cc1 | 0.0731 µM [rising, full curve, poor fit] | –
N#Cc1ncc(C(F)(F)F)cc1Sc1ccccc1N | 29.1 µM [rising, single point] | –
O=C(Nc1ccc(Cl)cc1)Nc1ccc(-c2cnco2)cc1 | 10 µM [rising, partial curve] | –
COc1ccc(/C=C\C(=O)CC(O)(c2ccccc2)C(F)(F)F)cc1 (stereo unspecified) | 1.16 µM [falling, partial curve, poor fit] | –

Gathered by group: the compounds so far with two or more sulfur atoms.
SMILES | AC50 [1] | AC50 [2]
CSC1=NSC2=NC(=O)/C(=C\c3cccs3)C(=N)N12 | 16.4 µM [falling, single point] | 29.1 µM [rising, partial curve, poor fit]
CCCCc1nnc(NC(=O)CCS(=O)(=O)c2ccc(Cl)cc2)s1 | 14.6 µM [falling, partial curve, poor fit] | –
CCN(CC)S(=O)(=O)c1cccc(-c2nnc(SCc3nnc(-c4ccccc4)o3)n2C)c1 | 1.03 µM [rising, full curve, poor fit] | –
O=S(=O)(Nc1ncccn1)c1ccc(NC(=S)Nc2cccc(Cl)c2)cc1 | 15.8 µM [rising, single point] | –
Cc1sc2nc(CSCC(=O)N3CC(C)OC(C)C3)[nH]c(=O)c2c1C (stereo unspecified) | 25.9 µM [rising, single point] | –
CCOC(=O)N1CCN(C(=O)CSCC(=O)Nc2nc(-c3ccc4c(c3)OCO4)cs2)CC1 | 0.562 µM [falling, full curve] | –
CCOc1ccc(CCNS(=O)(=O)c2c(C)nc3scc(C)n3c2=O)cc1OCC | 2.51 µM [rising, full curve, poor fit] | –
Cc1ccc(CSc2nnc(-c3cccc(S(=O)(=O)N4CCOCC4)c3)n2CC(C)C)cc1 | 0.82 µM [falling, full curve, poor fit] | –
CCOC(=O)N1CCN(S(=O)(=O)c2ccc(C(=O)Nc3sc4c(c3C(N)=O)CC(C)(C)NC4(C)C)cc2)CC1 | 35.5 µM [falling, single point] | –
